Source: patent US20230263754A1, “SOLID DISPERSIONS AND PARTICLES AND METHODS FOR CONTROLLED-RELEASE OF LIPID-SOLUBLE OR DISPESIBLE ACTIVES” (YISSUM RESEARCH DEVELOPMENT COMPANY OF THE HEBREW …, priority 2020, published 2023)

Legend:
[1] = Encapsulation efficiency and loading capacity of solid lipid microspheres (UV after dissolving in chloroform); type: physicochemical; conditions: Lidocaine in Beeswax-Chitosan MSs; average of three experiments
[2] = In vitro drug release from beeswax microspheres (Example 6); type: physicochemical; conditions: Lidocaine from Beeswax-Chitosan microspheres, 10 mM phosphate buffer pH 7.4, 37° C.
Method: 10 mg of microspheres were mixed with 5 mL of H2O or buffer and placed in the incubator. Three samples of each formulation were run at same conditions. A 3 mL samples were withdrawn at predetermined time intervals and an equal volume of fresh dissolution medium was replaced.
In vitro drug release for the obtained microspheres was studied in 5 ml of 10 mM buffer phosphate solution, pH 7.4 or in ddH2O at 37° C.

SMILES: CCN(CC)CC(=O)Nc1c(C)cccc1C [Lidocaine]
- loading capacity [1]: 4.9%
- period over which the remaining drug was released [2]: at least one week
